According to PubChem BioAssay AID2685 (National Center for Advancing Translational Sciences (NCATS), 2010):
The other results are listed elsewhere or left out. The main result of the screen is listed elsewhere. These columns were measured beside it and carry no call. Compounds called inactive in the main read-out are mostly missing here. Potencies come from curve fits of mixed quality, noted in brackets.

Test: qHTS Assay for Lipid Storage Modulators in Drosophila S3 Cells;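 on cell number change: cells counted by Cell Tracker Red CMTPX staining in the red channel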
Conditions: BODIPY lipid droplet fluorescence, 18-24 h; for cell number change: measured here: cell count max response, cells fed with added oleic acid
Outline: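 Drosophila S3 cells got compounds at several concentrations plus oleic acid (400 uM solution). Laser-scanning cytometry with 488 nm excitation read lipid droplets at 500-530 nm and cells at 575-640 nm. Percent activity was relative to 20 uM Triacsin C.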

[1] = measured here: lipid fluorescence (Fed channel) AC50, cells fed with added oleic acid
[2] = measured here: cell number channel AC50, cells fed with added oleic acid

Structure (SMILES)	cell number change	AC50 [1]	AC50 [2]
CC(C)(C)Oc1ncc(Br)c(OC(C)(C)C)n1	-1.85%	0.517 µM [falling, full curve, poor fit]	
COc1ccc(CC(C)Nc2ccccc2F)cc1 (centres undefined)	-17.2%	13 µM [rising, partial curve]	
Cc1cc(C(=O)OCC(=O)NCCC(C)C)c2ccccc2n1		16.4 µM [rising, partial curve]	
Cc1cccc(C(=O)c2cn[nH]c2-c2ccc(C)cc2O)c1	-21.5%		
NC(N)=NS(=O)(=O)c1ccc(N/C=C/C(=O)c2ccc(Cl)c(Cl)c2)cc1	31.7%	29.1 µM [rising, single point]	25.9 µM [rising, single point]
Cc1nnc(NC(=O)C(C)Sc2nncn2C)s1 (centres undefined)	-122%	16.4 µM [falling, partial curve]	14.6 µM [falling, partial curve]
COC(=O)c1cc2occc2n1Cc1nc(-c2ccc(Cl)cc2)oc1C	-15%		0.13 µM [falling, full curve, poor fit]
COc1ccccc1CNC(=O)/C=C/c1cc2c(cc1Br)OCO2	1.61%		
C=CCc1cccc(/C=N/NC(=O)CNc2ccccc2OC)c1O	-37.7%	29.1 µM [falling, single point]	29.1 µM [falling, single point]
Cc1nc(N2CCN(Cc3nc4ccccc4[nH]3)CC2)c2oc3ccccc3c2n1		0.651 µM [rising, partial curve]	0.651 µM [rising, partial curve]
O=C(CSc1ncc(-c2ccccc2)[nH]1)Nc1cccc(O)c1	8.75%		
CCOc1ncccc1C(=O)NCCN1C(=O)S/C(=C/c2cccs2)C1=O	-38.7%	3.66 µM [falling, partial curve]	23.1 µM [falling, single point]
COc1ccc(-c2csc(NC(=O)c3ccccc3OC)c2C(=O)O)cc1OC	3.23%	0.00517 µM [falling, full curve, poor fit]	
CN(C)CCCNc1c2ccccc2nc2ccccc12	-41.7%	16.4 µM [falling, single point]	18.4 µM [falling, single point]
CCOC(=O)C1(Cc2cccc(OC)c2)CCN(C/C=C/c2ccccc2)CC1	-21.4%	2.06 µM [falling, partial curve]	
COCCn1c(CN2CCN(C(c3ccccc3)c3ccccc3)CC2)nc2c1c(=O)n(C)c(=O)n2C	-38.9%	0.116 µM [falling, full curve, poor fit]	3.66 µM [falling, single point]
Cc1ccc(CNC(=O)c2ccc(N3CCC4(CC3)CC(c3ccccc3)=NO4)c(N)c2)cc1	-10.2%	1.03 µM [falling, full curve, poor fit]	
COc1ccc2oc(C(=O)OCC(=O)N(C)CC(=O)Nc3ccc(F)cc3)c(C)c2c1	-16%	0.058 µM [falling, full curve]	0.092 µM [falling, full curve, poor fit]
Cc1cccc(NC(=O)CNC(=O)CSc2nc(N)cc(N)n2)c1C	18%		

Structure (SMILES)	cell number change	AC50 [1]	AC50 [2]
CCOC(=O)c1sc2ncnc(N3CCN(C(=O)OCC)CC3)c2c1C		7.31 µM [rising, partial curve]	
COc1cc(C2c3c(oc4ccc(Cl)cc4c3=O)C(=O)N2Cc2ccco2)cc(OC)c1OC (centres undefined)	0.622%		
COCCCn1c(SCC(=O)NC2CCCCC2)nc2ccccc2c1=O	-17.1%	6.51 µM [falling, single point]	
COc1cc(C(=O)O/N=C2/C=C(C)C(=O)C=C2C)cc(OC)c1OC	10.9%	29.1 µM [rising, single point]	
CC(C)C(c1nnnn1Cc1ccc(F)cc1)N1CCN(c2ccc(O)cc2)CC1 (centres undefined)	-6.68%		
O=c1[nH]c2cc([N+](=O)[O-])c(NCCO)c([N+](=O)[O-])c2[nH]1	-35.6%		1.03 µM [falling, full curve]
COc1ccccc1-c1c(C)[nH]n2c(=O)c(Cc3ccccc3)c(C)nc12	-41.8%	25.9 µM [falling, partial curve, poor fit]	29.1 µM [falling, single point]
CN1CCC/C1=C/C=C1\SC(=S)NC1=O	-20.5%	14.6 µM [falling, single point]	
Cc1c(N=Cc2cc(Br)cc(Br)c2O)cccc1C(=O)O	30.4%		2.06 µM [rising, full curve, poor fit]
C=CCNC(=S)N/N=C/c1ccc(C)c([N+](=O)[O-])c1	21.3%	4.61 µM [rising, partial curve]	
COc1ccc(N(CC(=O)Nc2cc(Cl)ccc2OC)S(=O)(=O)c2c(C)noc2C)cc1	-7.44%	2.59 µM [rising, partial curve]	1.3 µM [rising, partial curve]
Cc1noc2ncnc(N3CCCC3)c12	-3.34%		
O=C(c1cc(-c2ccccc2Cl)nc2ccccc12)N1CCOCC1	7.11%	0.13 µM [rising, partial curve, poor fit]	
CCC1(c2ccc(F)cc2)NC(=O)N(CC(=O)Nc2cccc(S(=O)(=O)N3CCCCC3)c2)C1=O (centres undefined)	-9%	18.4 µM [falling, partial curve, poor fit]	
CCCN1CCN(S(=O)(=O)c2c(C)[nH]c(C)c2C(=O)N2CCCCC2)CC1	-1.81%	29.1 µM [rising, single point]	
O=C(c1c(F)cccc1F)N1CCCc2ccccc21	-11.7%	10.3 µM [rising, single point]	
CC(Sc1nnc(Cc2cccs2)n1C1CC1)C(=O)NC1CCS(=O)(=O)C1 (centres undefined)	-25%		5.17 µM [rising, partial curve]
Cc1cc(C)cc(-n2ncc3c2CCCC3NC(=O)c2cc(C)n(C)n2)c1 (centres undefined)	-7.03%	0.184 µM [falling, full curve]	

Retrieved by structure from the list above:
Structure (SMILES)	cell number change	AC50 [1]	AC50 [2]
CC(C)(C)Oc1ncc(Br)c(OC(C)(C)C)n1	-1.85%	0.517 µM [falling, full curve, poor fit]	
COc1ccccc1CNC(=O)/C=C/c1cc2c(cc1Br)OCO2	1.61%		
Cc1noc2ncnc(N3CCCC3)c12	-3.34%		
